The campaign covered roughly 3,000 compounds. About 45 (2%) showed an effect of 50% or more. The list shows a part of the results.

The assay has as its system MOLM1 and UCSD/AML1 (averaged). Briefly: cell viability relative to DMSO control (POC); higher = less growth inhibition. The note with it: 1 µM; 72 h. The method, then: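 Primary viability screen in the 3q26 EVI1-high AML cell lines MOLM1 and UCSD/AML1, compounds at 1 uM for 72 h. ATP CellTiter-Glo read-out given as percent viable over DMSO control (POC), averaged over duplicates. This mapping covers the TimTec NDL-3000 natural derivative library, whose compounds are identified by TimTec catalogue codes (ST...).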
By cell viability is commonly meant a read-out of living cells in per cent, often relative to untreated cells. On to `CC(=O)c1ccc(NC(=O)CN2CCN(Cc3cc(=O)oc4cc(C)ccc34)CC2)cc1`, for which the cell viability came out at 110%.
For the compound `CCOc1ccccc1C1C2CCCCC2(O)CCN1C(=O)/C=C/c1ccc2c(c1)OCO2` (stereo not given), the cell viability stood at 110%.
In the case of `Cc1cccc(-c2nc(CSc3nc4c(=O)[nH]cnc4n3C)c(C)o2)c1`, the cell viability came to 102%.
Take `O=C(O)/C=C/c1cc([N+](=O)[O-])ccc1Cl`: the cell viability came out at 104%.
Take `Cc1ccc2nc(-c3ccc(NC(=O)CN4CCc5ccccc5C4)cc3)sc2c1`: the cell viability was found to be 102%.
For `COC(=O)c1ccc(C(=O)NCCc2c(C)[nH]c3c(C)ccc(F)c23)cc1` the value was 91.1%; for `Cn1c(SCc2cccc(C(F)(F)F)c2)nc2c(=O)[nH]cnc21`, 91.9%; for `COc1ccc(C(=O)N/C(=C\c2ccco2)C(=O)NCCc2c(C)[nH]c3ccccc23)cc1`, 89.4%.
Consider `COc1ccc(C(c2c(O)c3ccccc3n(-c3ccccc3)c2=O)c2c(O)c3ccccc3n(-c3ccccc3)c2=O)cc1OC`, for which the cell viability turned out to be 98.8%.
In the case of `C#CC1(OC(C)=O)CCC2C3CCc4cc(OC(C)=O)ccc4C3C(O)CC21C` (stereo not given), the cell viability turned out to be 97.6%.
With `COC1OC2COC(c3ccccc3)OC2C(OC(=O)c2ccccc2)C1OC(=O)c1ccccc1` (stereo not given), the cell viability came to 91.9%.
In the case of `COc1cc(C(=O)N2CCN(S(=O)(=O)c3ccc(NC(C)=O)cc3)CC2)cc(OC)c1OC`, the cell viability came to 105%.
Take `O=C(CSc1nc2c(=O)[nH]cnc2n1-c1ccccc1)NC1CCCC1`: the cell viability stood at 91.7%.
`COC(=O)c1sc(NC(=O)c2ccc3c(c2)OCO3)c(C#N)c1C`: the cell viability stood at 94.9%.
For the compound `N#CC1=C(N)Oc2[nH]c(=O)[nH]c(=O)c2C1c1ccccc1F` (stereo not given), the cell viability is 94.3%.
Turning to `Cc1cc(C(F)(F)F)c2c(N)c(C(=O)N3CCC[C@H]3C(=O)O)sc2n1`, the cell viability was 96.1%.
For `CCOc1cc(C(=O)OCC(=O)Nc2cc(C)ccc2C)cc(OCC)c1OCC` the value was 105%.
With `N#Cc1cc2c(nc1SCC(=O)N1CCC[C@H]1C(=O)O)CCC2`, the cell viability amounted to 89.9%.
For the compound `CCCCCOc1ccc(C2=NOC(=O)/C2=C\c2cc(Cl)ccc2O)cc1`, the cell viability came to 92.3%.
Take `COc1ccc2[nH]cc(CCNC(=O)c3ccc(Cl)cc3)c2c1`: the cell viability came out at 101%.
For `COC(=O)CC(N)c1ccccc1F` (stereo not given), the cell viability amounted to 104%.
`Cc1ccc(Cn2c(OCc3nc(N)nc(N4CCOCC4)n3)nc3c2c(=O)n(C)c(=O)n3C)cc1`: the cell viability stood at 104%.
Consider `Cc1ccc(NC(=O)Cn2c(=O)cc(C(=O)NCc3ccccc3)c3ccccc32)cc1`, for which the cell viability turned out to be 94.2%.
Under `O=C(/C=C/c1ccc2c(c1)OCO2)NCc1ccc(Cl)cc1` stands 105%; under `CCCNC(=O)c1cc(=O)n(CC(=O)Nc2cccc(Cl)c2C)c2ccccc12`, 97.1%.
On to `COc1ccc(NC(=O)Cn2c(=O)cc(C(=O)N3CCOCC3)c3ccccc32)cc1OC`, for which the cell viability amounted to 102%.
Consider `COc1ccc(C(NS(=O)(=O)c2ccc(C)cc2)c2nccc3cc(OC)c(OC)cc23)cc1OC` (stereo not given), for which the cell viability came out at 98.4%.
Take `Cc1ccccc1CSc1nc2c(=O)[nH]cnc2n1-c1ccccc1`: the cell viability worked out at 93.2%.
Turning to `Nc1nc2nc(N3CCOCC3)[nH]c2c(=O)[nH]1`, the cell viability came out at 105%.
In the case of `Cc1ccccc1NC(=O)C(Cc1c[nH]c2ccccc12)NC(=O)Oc1ccccc1` (stereo not given), the cell viability is 95.1%.
As for `COc1cc(C(=O)Nc2cc(C(F)(F)F)ccc2N2CCOCC2)ccc1Oc1cc([N+](=O)[O-])cc(C(F)(F)F)c1`, the cell viability is 91.6%.
Take `COc1ccc(C2NC(C(=O)O)Cc3c2[nH]c2ccccc32)cc1COc1ccccc1C1CCCCC1` (stereo not given): the cell viability came to 85.9%.
Regarding `Cc1cc(C)c2c(CN3CCc4ccccc4C3)cc(=O)oc2c1`, the cell viability was 90.7%.
Regarding `COc1cc(C2C(C(=O)OC3CCCCC3)=C(C)NC3=C2C(=O)CC(c2ccccc2)C3)cc(Cl)c1O` (stereo not given), the cell viability is 90%.
For `COc1ccc(C(=O)Nc2ccccc2C(C)C)cc1OC` the value was 103%.
On to `Cn1c(=O)c2c(nc3n2CC(C24CC5CC(CC(C5)C2)C4)=NN3CCO)n(C)c1=O`, for which the cell viability was found to be 106%.
Turning to `COc1ccc(/C=C2\Oc3cc(OC(C)=O)ccc3C2=O)cc1`, the cell viability stood at 111%.
With `Cc1nc2c(nc(SCC(=O)N3CCCc4ccccc43)n2C)c(=O)[nH]1`, the cell viability was 106%.
Under `COc1ccc(-n2c(N)c(NC(=O)Nc3cccc(Cl)c3)c(=O)[nH]c2=O)cc1` stands 96.8%; under `N=c1oc2ccccc2cc1C(=O)Nc1ccc(F)cc1`, 103%; under `COc1ccc(-c2oc3ccccc3c(=O)c2OC(C)C(=O)O)cc1` (stereo not given), 100%.
For `CSc1cccc(NC(=O)Cn2c(=O)cc(C(=O)N3CCCC3)c3ccccc32)c1`, the cell viability stood at 97.9%.
Take `CC(C)OC(=O)C1=C(N)Oc2c(oc(CO)cc2=O)C1c1ccccc1[N+](=O)[O-]` (stereo not given): the cell viability was 102%.
Under `CC(=O)OC1CCC2(C)C(CCC3(C)C2C(=O)C=C2C4CC(C)(C(=O)N5CCOCC5)CCC4(C)CCC23C)C1(C)C` (stereo not given) stands 100%; under `CC(C)c1ccc(NC(=O)CSc2nc3c(=O)[nH]cnc3n2C)cc1`, 88.6%.
Under `CCOC(=O)CC(NC(=O)c1cc2cc(OC)ccc2oc1=O)c1ccccc1Cl` (stereo not given) stands 97.3%.
In the case of `NC(N)=NCCCC(NC(=O)c1ccccc1)C(=O)Nc1ccc2ccccc2c1` (stereo not given), the cell viability came to 101%.
With `CC(=O)NC1C(Oc2ccc3c(C)cc(=O)oc3c2)OC(CO)C(O)C1O` (stereo not given), the cell viability came out at 98.6%.
For the compound `Cc1[nH]c2ccc(CN)cc2c1C`, the cell viability came to 103%.
On to `Cc1ccc(Cn2c(SCC(=O)c3ccc([N+](=O)[O-])cc3)nc3c2c(=O)[nH]c(=O)n3C)cc1`, for which the cell viability was 101%.
As to `O=C(O)/C=C/c1ccc(O)cc1`, the cell viability is 103%.
As to `CCn1c(SCC(=O)O)nc2c1c(=O)[nH]c(=O)n2C`, the cell viability is 98.8%.
In the case of `COC(=O)CNC(=O)c1ccc(NC(C)=O)cc1`, the cell viability was determined as 101%.
Turning to `COc1ccc(/C=C2\CCc3ccccc3C2=O)cc1`, the cell viability is 94%.
Take `CCCc1cc(=O)[nH]c(SCc2ccc(C(=O)Nc3cccc(C)c3)cc2)n1`: the cell viability worked out at 91.3%.
On to `O=C(/C=C/c1cccc([N+](=O)[O-])c1)c1ccc2c(c1)OCO2`, for which the cell viability amounted to 98.1%.
Regarding `CC(=O)N[C@@H](Cc1c[nH]c2ccccc12)C(N)=O`, the cell viability turned out to be 100%.
In the case of `OC1C2COC(O2)C(O)C1O` (stereo not given), the cell viability came out at 102%.
Under `CN(CCO)c1nc2c(=O)n(C)c(=O)n(C)c2n1C` stands 98.8%; under `O=C(/C=C/c1ccc([N+](=O)[O-])cc1)NCc1ccc2c(c1)OCO2`, 97%.
As for `CC(C)Oc1ccc(CNC(=O)CSc2nc3ccccc3c(=O)[nH]2)cc1`, the cell viability stood at 105%.
For `CCOC(=O)CC[C@@H](C)[C@H]1CC[C@H]2[C@@H]3CC[C@@H]4C[C@H](O)CC[C@]4(C)[C@H]3C[C@H](O)[C@]12C` the value was 86%; for `CCOC(=O)C1=C(C)NC2=C(C(=O)CCC2)C1c1cc(Br)c(O)c(OC)c1` (stereo not given), 116%.
For `CC(=O)NC(N1CCCCC1c1cccnc1)(C(F)(F)F)C(F)(F)F` (stereo not given), the cell viability turned out to be 103%.
As for `CC(Oc1ccccc1)C(=O)Nc1c[nH]c(=O)[nH]c1=O` (stereo not given), the cell viability was found to be 100%.
For the compound `COc1ccc(NC(=O)CN2CCN(Cc3cc(=O)oc4cc(C)ccc34)CC2)cc1Cl`, the cell viability turned out to be 96.9%.
Turning to `COc1ccc2c(c1)c(CC(=O)NCCCN1CCCCC1)c(C)n2C(=O)c1ccc(Cl)cc1`, the cell viability is 81.2%.
Consider `N#Cc1c(N)c2ccccc2[nH]c1=O`, for which the cell viability turned out to be 103%.
As for `CCOCCn1c(C)c(C(=O)OCC)c2cc(O)c3ccccc3c21`, the cell viability was determined as 90.3%.
On to `COc1cc(/C=c2/sc3nc4ccccc4n3c2=O)cc(OC)c1OC(C)=O`, for which the cell viability stood at 97.8%.
`CCOc1ccc2oc(=O)cc(CSc3nc4ccccc4c(=O)[nH]3)c2c1`: the cell viability was determined as 99.7%.
On to `C=C(C)C1CCC2(COC(=O)/C=C/c3ccc(OC)cc3)CCC3(C)C(CCC4C5(C)CCC(O)C(C)(C)C5CCC43C)C12` (stereo not given), for which the cell viability is 99.6%.
For `COc1ccccc1-c1nc(CSc2nc3c(=O)[nH]c(C)nc3n2C)c(C)o1` the value was 98%; for `Cn1c(SCc2ccccc2F)nc2c(=O)[nH]cnc21`, 108%; for `CCCCOc1ccc(C2=NOC(=O)/C2=C\C=C\c2ccccc2)cc1`, 97.7%.
Regarding `Cc1oc(-c2cccc(Br)c2)nc1CSc1nc2c(=O)[nH]cnc2n1C`, the cell viability was 103%.
For the compound `CC1CCCN(C(=O)CSc2nc3ccccc3c(=O)[nH]2)C1` (stereo not given), the cell viability came out at 103%.
Take `O=C(Nc1ccccc1[N+](=O)[O-])C1Cc2ccccc2CN1S(=O)(=O)c1ccc(F)cc1` (stereo not given): the cell viability was determined as 97.1%.
For `CCc1ccccc1NC(=O)Cn1c(=O)cc(C(=O)N2CCc3ccccc3C2)c2ccccc21`, the cell viability was 99.3%.
For `COc1cc(C2NC(=O)C(=O)/C2=C(\O)c2ccc(OC)c(OC)c2)ccc1O` (stereo not given), the cell viability was 105%.
With `CCc1cccc(C)c1NC(=O)CSc1nc2c(=O)[nH]cnc2n1-c1ccc(C)cc1`, the cell viability amounted to 108%.
With `Cc1ccc2oc(=O)c(C)c(O)c2c1`, the cell viability was found to be 95.7%.
In the case of `CCCCOc1ccc(/C=C2/Oc3ccc(C(=O)OC)cc3C2=O)cc1OC`, the cell viability is 103%.
As for `COc1cc(C2C(C(=O)OC3CCCCC3)=C(C)NC3=C2C(=O)CC(c2ccccc2)C3)cc(Br)c1O` (stereo not given), the cell viability was 93.5%.
With `CCCNC(=O)c1cc(=O)n(CC(=O)Nc2ccc(F)c(Cl)c2)c2ccccc12`, the cell viability was 91.9%.
For `Cc1ccc(-n2c(SCc3nc(-c4ccccc4Cl)oc3C)nc3c(=O)[nH]cnc32)cc1` the value was 116%; for `COC(=O)C1Cc2c([nH]c3ccccc23)C(c2cccc(OC)c2OC)N1` (stereo not given), 111%.
On to `O=C(CCNc1n[nH]c(=O)[nH]c1=O)N/N=C/c1cccnc1`, for which the cell viability was found to be 93%.
Under `NNC(=O)C1Cc2c([nH]c3ccccc23)CN1` (stereo not given) stands 99.6%; under `COc1ccc2cc(-c3ccccc3Cl)c(=O)oc2c1`, 99.2%; under `CC(C)c1ccc(/C=C/C(=O)O)cc1`, 99.9%.
For `Nc1ncnc2nc(SCc3ccccc3Cl)[nH]c12` the value was 88.8%; for `Cc1ccc(-n2c(SCc3nc(-c4ccccc4)oc3C)nc3c(=O)[nH]cnc32)cc1`, 106%; for `CCOc1ccc2oc(=O)cc(CN3CCN(CC(=O)N4CCC(C)CC4)CC3)c2c1`, 95.3%.
For `Cc1ccc2c(CN3CCN(CC(=O)Nc4ccc(F)cc4C)CC3)cc(=O)oc2c1` the value was 99.8%; for `COc1cc(C2NC(=O)N(C)C(C)=C2C(=O)OCCOc2ccccc2)cc(Cl)c1O` (stereo not given), 109%; for `O=c1c(O)c(-c2ccccc2)oc2cc(O)ccc12`, 100%.
As for `COC(=O)CNC(=O)CN(c1ccc(OC)cc1OC)S(=O)(=O)c1ccccc1`, the cell viability amounted to 94.1%.
Take `Cn1c(SCC(=O)Nc2cccc(C(F)(F)F)c2)nc2c(=O)[nH]cnc21`: the cell viability is 89.5%.
As to `CCc1ccc2oc(=O)cc(CN3CCN(c4ccccn4)CC3)c2c1`, the cell viability turned out to be 102%.

The values above are taken from the supplement of paper PMC11150407.
